± gives the standard deviation. The entries are a selection whose mix differs from that of the whole data set. Many of these values have a large error.
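Note: 1 nM active piRISC with 0.1 nM target library at 33 °C single turnover.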

In the first assay the test system is MIWI (PIWIL1) piRISC loaded with L1MC piRNA (30 nt). As to the kind of experiment: pre-steady-state target cleavage rate (min^-1); MIWI and MILI are mouse PIWI proteins and EfPiwi is from a freshwater sponge; tags in brackets are library labels; higher = faster piRNA-guided slicing of the target. As to conditions: guide: L1MC piRNA 5'p-UAACUAAAUACUAUGCAAGCUGUAGGUCCU; auxiliary factor: 500 nM mouse GTSF1. Put shortly:
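The pre-steady-state cleavage rate was calculated from a burst-and-steady-state fit. Data came from Cleave-'n-Seq, in which […] transcribed, DNA-blocked target RNA library was mixed with 1 nM active affinity-purified piRISC carrying one synthetic guide, with or without 500 nM GTSF1 partner protein, in HEPES–potassium acetate buffer at 33 °C for 0–8 or 0–960 min. Uncleaved targets were sequenced and normalised to depth and to weakly complementary targets, three trials were pooled, and k3 was capped at 0.0001 min^-1.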
Turning to AGGAGGUACAGCUUGCAUAGUAUUUAGUUA, the “pre-steady-state target cleavage rate” value is 1.5 ± 0.072. On the same count and under the same terms, as for UCGUGCUACAGCUUGCAUAGUAUUUAGUUA, the figure is 1.38 ± 0.059; as for UCGACCUACAGCUUGCAUAGUUAUUACAAA, 0.115 ± 0.035. As to UCGACCUACAGCUUGCAUAUUAUUUAGUUA, the “pre-steady-state target cleavage rate” value was determined as 1.5 ± 0.072. UCCUGGAUGUCGAACGUUAGUUUUUAGUAA: the “pre-steady-state target cleavage rate” value amounted to 0.000186 ± 0.023.

Still in this assay, the particulars now being: guide: L1MC piRNA 5'p-UAACUAAAUACUAUGCAAGCUGUAGGUCCU; auxiliary factor: none (no GTSF1).
For the sequence UGGACCUACAGCUUGCAUAGUAUUAUGAAA, the “pre-steady-state target cleavage rate” value was 0.00217 ± 0.0034.

Regarding UCCACCUACAGCUUGCAUUCAAUUUAGUAA, the “pre-steady-state target cleavage rate” value is 0.000808 ± 0.0086.

In the case of UCCUGGAUGUCGAACCAUAGUAAAUAGUUA, the “pre-steady-state target cleavage rate” value was 0.000506 ± 0.011. Still for that read-out and setting: as for UCCUGGAUGUCGAUGUAUAGUAUUUAGUUA, the figure is 0.00202 ± 0.0039. Regarding AGGACCUACAGCUUCCAUAGUAUUAAGUUA, the “pre-steady-state target cleavage rate” value worked out at 0.00102 ± 0.0076. Still for that read-out and setting: as for UCCACCUACAGCUUCGUUAGUAUUUAGUAA, the figure is 0.000735 ± 0.0082.

In the case of UCCACCUACAGCUUGCAUAGAUUUAGUUA, the “pre-steady-state target cleavage rate” value is 0.000373 ± 0.0073. UCCACCUACAGCUUGGUAAGUAUUUUCAAA: the “pre-steady-state target cleavage rate” value worked out at 0.000594 ± 0.0088.

For UCGACCUACAGCUUCCAAAGUAUUUAGUUA, the “pre-steady-state target cleavage rate” value turned out to be 0.00148 ± 0.0027.

Consider AGGACCUACAGCAACCAUAGUAUUUAGAAA, for which the “pre-steady-state target cleavage rate” value was determined as 0.000307 ± 0.012. On the same count and under the same terms, as for UCCACCUACAGCUUGCAUAGUAAUAAGUUA, the figure is 0.00174 ± 0.0047. On the same count and under the same terms, as for UGGACCUACAGCUUGGUUAGUAUUUUCAAA, the figure is 0.00093 ± 0.0055; as for UCCACCUACAGGUUGCAUAGUAUUUUCAAA, 0.000643 ± 0.0081. For the sequence UCCACCUACAGCUACCAUAGUAUUUAGAAA, the “pre-steady-state target cleavage rate” value stood at 0.000857 ± 0.0081. Still for that read-out and setting: as for UCCUGGAUGUCGAACGUUAUUAUUUAGUUA, the figure is 0.000257 ± 0.017. With UCCACCUACAGCUUGGUAAGUAUUUAGUAA, the “pre-steady-state target cleavage rate” value was found to be 0.000627 ± 0.0078.

For UCGACCUACAGCUUGCAUAGAUAUUUAGUUA, the “pre-steady-state target cleavage rate” value came out at 0.00181 ± 0.0033. On the same count and under the same terms, as for AGGACCUACAGCUUGCAUAGUAUAAAGAAA, the figure is 0.00215 ± 0.0043; as for UCCUGGAUGUCGAACGUAACUAUAUAGUUA, 0.00026 ± 0.023. With “UCCACCUACAGCUUGCAUACAUAAAUCAAA [g12:g27:cont:t1A]”, the “pre-steady-state target cleavage rate” value came to 0.00063 ± 0.011. Same read-out and setting: as for UCGACCUACAGCAACCAUAGUAUUUACAAA, the figure is 0.000192 ± 0.019; as for UCCACCUACAGCAAGCAUAGUAUUUACAAA, 0.000653 ± 0.0065. Still for that read-out and setting: as for AGGACCUACACGAUGCAUAGUAUUUUCAAA, the figure is 0.000228 ± 0.016; as for UCGACCUAGUCCUUGCAUAGUAUUUUCAAA, 0.00129 ± 0.0029.

For the sequence AGGACCUACAGCUUCGUUAGUAUUUACAAA, the “pre-steady-state target cleavage rate” value worked out at 0.000612 ± 0.0097. Still for that read-out and setting: as for UGGACCUAGUGCUUGCAUAGUAUUUUCAAA, the figure is 0.00182 ± 0.0033. On the same count and under the same terms, as for UGGACCUACAGCUUGCAUAGUAAAUUCAAA, the figure is 0.000308 ± 0.0089; as for AGGACCUACAGCUUGCAAUGUAUUUACAAA, 0.00119 ± 0.0053; as for UCCACCUACAGCUUGCAUAGAUUUUAGAAA, 0.000331 ± 0.011. On to “UCCACCUACAGCUUGCAUUCAUAAAUCAAA [g13:g27:cont:t1A]”, for which the “pre-steady-state target cleavage rate” value is 0.000277 ± 0.014.

On to UCGACCUACAGCAAGCAUAGUAUUUUCAAA, for which the “pre-steady-state target cleavage rate” value turned out to be 0.000323 ± 0.0082. Same read-out and setting: as for UCCACCUACAGCUUGCAUUCUAUUUAGUAA, the figure is 0.00247 ± 0.0026; as for UCCUGGAUGUCGAACGUUAGUAUUUUCAUA, 0.000105 ± 0.036; as for UCCACCUACAGCUUGCAUACAAUUUAGAAA, 0.000507 ± 0.0093. The same measure, in the same setting: as for AGGACCUACAGCUUGCAUAGUUUUAGUUA, the figure is 0.00156 ± 0.0061.
